Measurements from article PMC7276988, “Cryo-EM Structure of the Fork Protection Complex Bound to CMG at a Replication Fork” (Molecular Cell, 2020).
Results are given in words; binding and its absence hold for the method and conditions named. Binding seen in cells or lysates may run through a third protein. Some results given as binding are weak or reduced against the parent protein; the word gives no strength.

By UniProt entry, the sequences of proteins in these tests, tags left out.
UniProt P29469: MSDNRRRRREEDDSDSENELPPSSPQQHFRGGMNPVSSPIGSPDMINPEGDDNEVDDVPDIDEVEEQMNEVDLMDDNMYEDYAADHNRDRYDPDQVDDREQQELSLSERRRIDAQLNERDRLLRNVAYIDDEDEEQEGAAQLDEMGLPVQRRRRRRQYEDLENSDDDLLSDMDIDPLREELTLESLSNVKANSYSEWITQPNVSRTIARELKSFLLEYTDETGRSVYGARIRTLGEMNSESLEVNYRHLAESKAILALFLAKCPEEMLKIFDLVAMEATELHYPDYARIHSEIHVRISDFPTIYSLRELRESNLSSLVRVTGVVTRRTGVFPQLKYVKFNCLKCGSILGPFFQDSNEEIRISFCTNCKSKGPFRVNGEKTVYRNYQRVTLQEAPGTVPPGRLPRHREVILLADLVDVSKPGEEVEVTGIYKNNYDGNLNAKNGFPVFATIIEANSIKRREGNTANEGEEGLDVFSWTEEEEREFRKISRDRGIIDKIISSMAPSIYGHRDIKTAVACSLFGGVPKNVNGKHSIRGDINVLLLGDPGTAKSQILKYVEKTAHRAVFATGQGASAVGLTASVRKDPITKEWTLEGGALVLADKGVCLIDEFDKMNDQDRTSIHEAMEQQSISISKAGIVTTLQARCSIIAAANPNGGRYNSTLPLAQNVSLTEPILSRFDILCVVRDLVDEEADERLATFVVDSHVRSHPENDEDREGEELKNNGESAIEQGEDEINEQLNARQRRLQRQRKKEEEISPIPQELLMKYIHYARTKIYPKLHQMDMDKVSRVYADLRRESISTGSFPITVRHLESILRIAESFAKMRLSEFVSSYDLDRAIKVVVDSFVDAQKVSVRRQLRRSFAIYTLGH
UniProt P53091: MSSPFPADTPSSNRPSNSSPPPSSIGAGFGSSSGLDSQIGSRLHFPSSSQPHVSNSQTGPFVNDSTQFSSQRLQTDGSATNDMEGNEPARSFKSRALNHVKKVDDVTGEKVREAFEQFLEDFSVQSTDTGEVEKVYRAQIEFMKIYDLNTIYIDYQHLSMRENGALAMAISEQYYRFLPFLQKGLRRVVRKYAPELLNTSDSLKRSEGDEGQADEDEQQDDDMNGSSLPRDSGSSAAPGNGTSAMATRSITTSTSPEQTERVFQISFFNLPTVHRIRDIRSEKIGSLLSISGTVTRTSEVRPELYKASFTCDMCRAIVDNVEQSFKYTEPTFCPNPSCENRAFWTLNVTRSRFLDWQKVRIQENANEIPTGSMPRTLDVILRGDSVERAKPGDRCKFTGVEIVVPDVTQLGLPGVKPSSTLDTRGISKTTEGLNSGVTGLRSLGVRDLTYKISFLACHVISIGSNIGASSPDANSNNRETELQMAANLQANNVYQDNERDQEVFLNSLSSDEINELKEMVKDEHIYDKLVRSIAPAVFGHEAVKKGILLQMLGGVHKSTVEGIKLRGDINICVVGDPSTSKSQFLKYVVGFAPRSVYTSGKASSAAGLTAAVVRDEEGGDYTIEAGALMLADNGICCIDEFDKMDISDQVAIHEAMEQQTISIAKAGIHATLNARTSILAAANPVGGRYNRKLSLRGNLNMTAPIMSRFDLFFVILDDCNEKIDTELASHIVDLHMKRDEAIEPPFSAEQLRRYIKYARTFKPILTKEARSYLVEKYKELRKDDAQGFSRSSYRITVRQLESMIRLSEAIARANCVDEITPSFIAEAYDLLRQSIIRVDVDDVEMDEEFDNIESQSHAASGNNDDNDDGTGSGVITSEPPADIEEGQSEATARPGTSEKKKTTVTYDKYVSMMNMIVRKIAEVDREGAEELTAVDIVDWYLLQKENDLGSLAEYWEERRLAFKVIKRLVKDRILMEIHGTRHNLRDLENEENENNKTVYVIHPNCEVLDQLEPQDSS

Legend:
Assay in all cases: cross-linking; XL-MS: co-expressed complex of CMG, Ctf4, Csm3/Tof1 and Mrc1, calmodulin eluate cross-linked with 100-fold excess of DSBU, 60 min, room temperature; trypsin, LC-MS/MS, MeroX; cross-links residues within about 30 Å
[1] = target: T1, Cdc45-MCM-GINS (CMG) helicase (S. cerevisiae, UniProt P29469 1-868; P24279 1-971; P30665 1-933; P29496 1-775; P53091 1-1017; P38132 …)
T1 construct: Mcm2, S. cerevisiae, subunit of MCM in CMG; Mcm3, S. cerevisiae, subunit of MCM in CMG; Mcm4, S. cerevisiae, subunit of MCM in CMG; Mcm5, S. cerevisiae, subunit of MCM in CMG; Mcm6, S. cerevisiae, subunit of MCM in CMG; Mcm7, S. cerevisiae, subunit of MCM in CMG; Cdc45, S. cerevisiae, subunit of CMG; Psf1, S. cerevisiae, subunit of GINS in CMG; Psf2, S. cerevisiae, subunit of GINS in CMG; Psf3, …

Tof1 = target: T2, Tof1 (S. cerevisiae, UniProt P53840 1-1238, phosphorylated (sites not given))
T2 construct: Tof1, S. cerevisiae; residues 13-781 are resolved in the map; The Tof1 chain of m2; source: S. cerevisiae, overexpressed with Csm3, purified as Csm3/Tof1; in XL-MS part of the co-expressed, co-purified complex (yJY74)
T2 sequence: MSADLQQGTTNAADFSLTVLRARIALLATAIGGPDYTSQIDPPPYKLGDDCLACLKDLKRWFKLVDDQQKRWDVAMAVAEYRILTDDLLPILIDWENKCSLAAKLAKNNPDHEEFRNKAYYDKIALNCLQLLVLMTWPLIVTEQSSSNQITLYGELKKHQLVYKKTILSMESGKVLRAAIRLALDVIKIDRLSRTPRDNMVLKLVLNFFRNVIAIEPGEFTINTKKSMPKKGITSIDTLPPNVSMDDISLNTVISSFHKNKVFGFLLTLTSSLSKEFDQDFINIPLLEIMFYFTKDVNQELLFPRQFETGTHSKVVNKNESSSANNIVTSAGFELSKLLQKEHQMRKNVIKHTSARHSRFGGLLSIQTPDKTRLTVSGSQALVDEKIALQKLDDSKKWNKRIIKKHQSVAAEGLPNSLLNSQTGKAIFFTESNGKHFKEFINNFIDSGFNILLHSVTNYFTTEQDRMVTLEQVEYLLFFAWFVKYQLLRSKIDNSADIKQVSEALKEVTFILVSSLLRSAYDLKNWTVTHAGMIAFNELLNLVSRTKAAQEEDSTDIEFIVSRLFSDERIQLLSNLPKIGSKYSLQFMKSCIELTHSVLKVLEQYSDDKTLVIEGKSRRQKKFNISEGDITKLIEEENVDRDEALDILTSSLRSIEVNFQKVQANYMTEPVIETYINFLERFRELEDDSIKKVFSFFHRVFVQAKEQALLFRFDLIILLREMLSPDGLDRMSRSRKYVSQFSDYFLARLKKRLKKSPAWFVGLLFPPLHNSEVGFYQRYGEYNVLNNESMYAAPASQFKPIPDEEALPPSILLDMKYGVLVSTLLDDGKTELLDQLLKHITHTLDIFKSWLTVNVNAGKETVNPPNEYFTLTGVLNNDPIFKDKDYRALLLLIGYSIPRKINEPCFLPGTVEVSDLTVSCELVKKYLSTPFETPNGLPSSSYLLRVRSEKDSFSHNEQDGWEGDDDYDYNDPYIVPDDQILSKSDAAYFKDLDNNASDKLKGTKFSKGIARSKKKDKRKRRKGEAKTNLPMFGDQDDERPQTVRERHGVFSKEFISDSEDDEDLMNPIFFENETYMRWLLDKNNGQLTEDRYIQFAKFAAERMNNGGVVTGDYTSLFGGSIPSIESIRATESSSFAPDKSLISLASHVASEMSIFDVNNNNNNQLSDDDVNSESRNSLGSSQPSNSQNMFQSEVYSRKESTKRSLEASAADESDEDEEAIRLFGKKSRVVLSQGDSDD

Mcm6 (S. cerevisiae) = Mcm6 (S. cerevisiae) (UniProt P53091)
Mcm2 (S. cerevisiae) = Mcm2 (S. cerevisiae) (UniProt P29469)
Cdc45 = target: T3, Cdc45 (S. cerevisiae, UniProt Q08032 1-650)
T3 construct: Cdc45, S. cerevisiae, subunit of CMG; source: S. cerevisiae, overexpressed, purified as part of CMG; in XL-MS part of the co-expressed, co-purified complex (yJY74)
T3 sequence: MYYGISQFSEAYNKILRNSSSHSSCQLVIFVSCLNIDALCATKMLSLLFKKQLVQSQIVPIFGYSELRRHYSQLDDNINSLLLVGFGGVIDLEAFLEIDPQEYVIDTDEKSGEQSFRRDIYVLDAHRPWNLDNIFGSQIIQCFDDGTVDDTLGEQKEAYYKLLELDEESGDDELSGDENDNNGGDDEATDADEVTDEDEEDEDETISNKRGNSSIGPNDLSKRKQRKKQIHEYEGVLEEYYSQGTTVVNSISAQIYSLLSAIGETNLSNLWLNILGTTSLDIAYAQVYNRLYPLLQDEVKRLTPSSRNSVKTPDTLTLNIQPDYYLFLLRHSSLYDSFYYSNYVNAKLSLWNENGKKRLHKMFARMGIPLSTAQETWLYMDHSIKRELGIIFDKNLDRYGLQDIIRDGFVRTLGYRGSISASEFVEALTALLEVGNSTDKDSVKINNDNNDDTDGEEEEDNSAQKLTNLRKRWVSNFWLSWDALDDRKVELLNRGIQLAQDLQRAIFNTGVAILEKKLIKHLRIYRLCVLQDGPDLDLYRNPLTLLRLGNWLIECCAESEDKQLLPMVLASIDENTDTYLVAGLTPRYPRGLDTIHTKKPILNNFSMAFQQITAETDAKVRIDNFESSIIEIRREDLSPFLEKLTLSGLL

Measured: binding

B1: Mrc1 (natural protein, S. cerevisiae, UniProt P25588 1-1096, looked up)
chain: MDDALHALSSLTAKKRTTTYKKVAVPILDENDNTNGNGPNDIDNPPELTGNGFLFANATLNRVKNRLEGKKAPEQNHNNGKDRSENSLPTQLISNLYDGGEELEKSEVKDNSYSEKNVSSSFTQTQRIPVSIQQDKVFNVPIHSVNDGKPTQLIKEDGLVNETSQALKTPLTTGRPGATQRIDSSGATSQTQPIKSIEPQSQIITTSSNHSNALSPKIPIIPTELIGTSPLFQSIQNRGPDTQMDVPPQTAHDEDKTQAIGIPQATHQEQKTQIDTVAQTLQDEVPHTLKIREIQSELASEDSKREKARNVEYKKPQKPIPTKKFFSKESFLADFDDSSSNEDDDIKLENAHPKPVQNDDELHENKSVELNLTDETRINEKRVPLLSSYANNLKREIDSSKCITLDLDSDSDEYGDDDMDSIKLSKDESVLPISQLSKATILNLKARLSKQNQKLSQRPNKSKDPKVDHNVLLNTLRKASRKQILDHQKEVIETKGLKLEDMAKEKEIVENLLEQEILRNKRIRQKEKRREKLEENDFQLNAHDSGSDSGSESSGFALSGNEIADYESSGSENDNRRESDSEKEDDEIILKQKKSHHVKHIINESDSDTEVEAKPKEKADESLPKRIAINLGHYGDNIGEDTDKFQETNVLDTQNIEEVMAERNTIENEVKDDVYVNEEADEAIRRQLIDKEKLQLKQKEKEHEAKIKELKKRGVTNFFEMEAEESEDEWHGIGGADGEGSDDYDSDLEKMIDDYSKNNFNPHEIREMLAAENKEMDIKMINKILYDIKNGGFRNKRAKNSLELELSDDDEDDVLQQYRLKRRELMRKRRLEIGDDAKLVKNPKSSAFFESMVEDIIEYKNPFGAEEEYNLDITSTATDLDTQDNSINVGDNTGNNEQKPVDQKNKKVIISEDFVQKSLSFLKSNNYEDFETDKELSRIQHGNDEAIEDLYTLKQNSSIKSFTNSQTDSTTSKTVNTIIDLEKRPEDEDEVENGDTSLVGVFKHPSIIKSFASRTDINDKFKEGNKTVKILKSYKTVGSSKASITYMGKTRKLIAPKRKTEGSHRYHHDHHNKKMKMKTKTKSNKLFESGQDSFDN
notes: Mrc1, S. cerevisiae; printed as a 125 kDa protein; The FLAG purification is told for the separately purified protein; source: S. cerevisiae, overexpressed at 20°C, purified (anti-FLAG M2, Superose 6)
binds: all assays above
